Among the data in the supplement of paper PMC12578635 are host macrophage viability values, retold here.

± gives the standard deviation of the averaged measurements. Some of the results follow. Most values come without repeats; read them as rough.

The test system of the assay is RAW 264.7 macrophages infected with S. aureus JE2-lux. Briefly: host macrophage viability (CellTiter-Fluor) relative to DMSO vehicle; higher = more viable host cells. Conditions: 10 µM; treatment time 4 h; gentamicin 50 µg/ml.
As to `Cc1cc2cc(CCNC(=S)Nc3ccccc3F)c(=O)[nH]c2cc1C`, the host macrophage viability was 116 ± 3.8%.

For the compound `CCS(=O)(=O)c1cccc(C(=O)Nc2cccc(-c3nc4ccccc4o3)c2)c1`, the host macrophage viability amounted to 136%.

For the compound `CCn1nc(C)c2ccnc(N3CCC(C(=O)N4CCN(C5CCN(C)CC5)CC4)CC3)c21`, the host macrophage viability amounted to 115%.

Take `Cc1ccc(C(=O)Nc2ccccc2-c2nc3ccccc3[nH]c2=O)cc1`: the host macrophage viability came out at 126%.

Consider `Cc1nnc2ccc(C(=O)N3CCN(Cc4ccccc4)CC3)cn12`, for which the host macrophage viability is 115%.

Turning to `Cc1cc(NC(=O)COc2ccccc2F)n(-c2ncnc3c2cnn3-c2cccc(C)c2C)n1`, the host macrophage viability is 129%.

In the case of `Cc1cc(C(=O)NCc2c[nH]nc2C)c2cccc(-c3ccc(F)cc3)c2n1`, the host macrophage viability was 119%.

On to `CC1CN(S(=O)(=O)c2ccc(NC(=O)CCN3C(=O)c4ccccc4C3=O)cc2)CC(C)O1` (centres undefined), for which the host macrophage viability is 117%.

With `O=C(c1ccco1)N1CCN(c2ncnc3c(-c4ccc(Cl)cc4)nsc23)CC1`, the host macrophage viability turned out to be 107%.

As to `Cc1ccc(C2C3=C(CC(C)(C)CC3=O)Nc3nc(SCCC(C)C)[nH]c(=O)c32)s1` (centres undefined), the host macrophage viability was 125%.

Turning to `Cc1nnc(SCC(=O)Nc2ccc3c(c2)OCCO3)s1`, the host macrophage viability was determined as 116%.

For the compound `Cc1sc2nc(SCC(=O)NCCOCCO)nc(N)c2c1C`, the host macrophage viability was found to be 111 ± 19%.

For the compound `CC1CCc2nc3ncn(CC(=O)NC4CCCC4)c(=O)c3cc2C1` (centres undefined), the host macrophage viability amounted to 107%.

With `COc1ccccc1C(CNC(=O)c1cc(-c2ccccc2)on1)N1CCC(C)CC1` (centres undefined), the host macrophage viability was 111%.

As for `CCOc1ccc(NC(=O)CC2SC(=N)NC2=O)c([N+](=O)[O-])c1` (centres undefined), the host macrophage viability stood at 127%.

In the case of `CCCc1cc(O)nc(SCC(=O)N2CCc3ccccc3C2)n1`, the host macrophage viability is 122%.

On to `CCCn1ncc(C)c1NC(=O)Cn1nc2n(C)c3ccccc3n2c1=O`, for which the host macrophage viability stood at 106%.

`COc1ccccc1CNC(=O)C(C)n1nc(-c2cc(C)oc2C)cc(N)c1=O` (centres undefined): the host macrophage viability turned out to be 107%.

Regarding `COc1ccc(C(=O)c2sc3nc4c(cc3c2N)C(=O)CCC4)cc1`, the host macrophage viability was determined as 142%.

For `Cc1onc(-c2ccncc2)c1C(=O)N(C)Cc1nc2cc(Cl)ccc2[nH]1`, the host macrophage viability amounted to 103%.

As to `COc1ccc(CCN2C(=O)C3N=NN(c4ccccc4)C3C2=O)cc1OC` (centres undefined), the host macrophage viability turned out to be 117%.

`COc1cccc(Nc2nc(NCc3ccc(C)cc3)nc3c2cnn3C)c1`: the host macrophage viability turned out to be 120%.

As to `COc1ccc(OC)c(Nc2nc(NCc3ccco3)nc(N)c2[N+](=O)[O-])c1`, the host macrophage viability came to 94.8%.

With `Cc1cc2nc(NC(=O)/C=C/c3cccc([N+](=O)[O-])c3)sc2cc1C`, the host macrophage viability was 115%.

Turning to `O=C(O)/C=C\C(=O)NNC(=O)CSc1nc2ccccc2[nH]1`, the host macrophage viability came out at 102 ± 9%.

With `O=C(CSc1nc(=O)n2ccccc2n1)Nc1ccc2c(c1)OCO2`, the host macrophage viability came out at 114%.

For `CCOc1ccc2[nH]c(=O)c(CN(CCO)C(=O)Nc3ccc(C)cc3)cc2c1`, the host macrophage viability is 77.3%.

As for `Cc1cc(C)n2ncc(C(=O)N3CCN(c4ccccn4)CC3)c2n1`, the host macrophage viability was determined as 110%.

In the case of `CCNS(=O)(=O)c1cc(-c2cc(C(=O)NC3CCCCC3)n[nH]2)ccc1OC`, the host macrophage viability was 85.6%.

In the case of `Cc1ccc(-c2nc3ncccn3c2NC(=O)c2cc3ccccc3oc2=O)cc1`, the host macrophage viability was 124 ± 14%.

`Cc1cccc(C(=O)Nc2sc3c(c2C(N)=O)CC(C)CC3)c1` (centres undefined): the host macrophage viability was determined as 147%.

As to `CCOc1ccc(N2C(=O)c3ccccc3C2C(=O)NCCC(C)C)cc1` (centres undefined), the host macrophage viability came to 123%.

For `COc1ccc(-c2cnc(NC(=O)NC(C)C)n2C)cc1`, the host macrophage viability stood at 128%.

Regarding `CCOC(=O)c1ccccc1NC(=O)CSc1ccnc2c1c(=O)n(C)c(=O)n2C`, the host macrophage viability was 120%.

As to `Cc1nc2c3ccccc3n(CC(=O)Nc3ccc4c(c3)OCO4)c(=O)n2n1`, the host macrophage viability stood at 104%.

In the case of `O=C1Oc2ccccc2C(=O)/C1=C/Nc1cccc(Cl)c1`, the host macrophage viability turned out to be 110%.

In the case of `Cc1cc(C)c2cc(C)c3nnc(SCC(=O)Nc4nnc(C)s4)n3c2c1`, the host macrophage viability is 121%.

With `COc1ccccc1-c1noc(-c2ccc[nH]c2=O)n1`, the host macrophage viability was 129%.

For the compound `CC(C)(CCl)C(=O)Nc1c(C(N)=O)oc2ccccc12`, the host macrophage viability was determined as 117%.

In the case of `Cc1ccc(Cc2cnc(NC(=O)C3Cc4ccc(C)cc4C(=O)O3)s2)cc1` (centres undefined), the host macrophage viability was found to be 117%.

With `C=CCNc1nnc(SCC(=O)Nc2ccccc2F)c2ccccc12`, the host macrophage viability worked out at 97.9%.

For the compound `O=C(O)CC1C(=O)NCCN1Cc1ccc2ccccc2c1` (centres undefined), the host macrophage viability came to 119%.

Take `COc1cccc2c(=O)cc(C)n(CC(=O)NCc3ccccc3)c12`: the host macrophage viability stood at 97.8%.

For `N#Cc1ccccc1Cn1c(=O)n(CC(=O)NCc2ccccc2Cl)c(=O)c2sccc21`, the host macrophage viability is 131%.

In the case of `N#C/C(=C/c1ccc(O)c([N+](=O)[O-])c1)c1nc(-c2ccc([N+](=O)[O-])cc2)cs1`, the host macrophage viability was found to be 113 ± 22%.

As to `COC(=O)c1ccc(CSc2nc(N)cc(=O)[nH]2)cc1`, the host macrophage viability was found to be 104%.

As for `CCOC(=O)Cc1csc(NC(=O)CSc2nnc3ccccn23)n1`, the host macrophage viability was 118 ± 17%.

As for `Cc1[nH]c2ccccc2c1SCC(=O)Nc1ccc(F)cc1`, the host macrophage viability amounted to 124%.

Take `Cc1nc(N2CCC(C(=O)NCCc3ccc(S(N)(=O)=O)cc3)CC2)c2c(C)c(C)oc2n1`: the host macrophage viability was determined as 107%.

For the compound `CCOc1ccc(-c2nc3c(c(=O)[nH]2)Cc2cc(Cl)ccc2O3)cc1`, the host macrophage viability came out at 126%.

Regarding `COc1ccc2cc(C)c3nn(CCNC(=O)c4noc5c4CCCC5)c(=O)n3c2c1`, the host macrophage viability was 100%.

In the case of `COC(=O)CSc1nc(-c2ccc(OC)cc2)nc2c1Cc1cc(C)ccc1O2`, the host macrophage viability is 96.9%.

For `C=CCN(C(=O)C(C)Sc1nc2ncccc2o1)c1ccccc1` (centres undefined), the host macrophage viability was 119%.

For the compound `CCN(c1ccccc1)S(=O)(=O)c1ccc(C(=O)Nc2ccc3c(c2)C(=O)N(C)C3=O)cc1`, the host macrophage viability worked out at 126%.

Regarding `COc1ccc(OC)c(NS(=O)(=O)c2c(C)sc(C)c2-c2cc(C(F)(F)F)on2)c1`, the host macrophage viability worked out at 101%.

As for `Cc1nc(OCC(=O)NC2CCCc3ccccc32)c2c(-c3cccc(F)c3)noc2n1` (centres undefined), the host macrophage viability was 111%.

For `COc1ccc(C(=O)CSc2cc(C)[nH]c(=O)n2)cc1`, the host macrophage viability was determined as 123%.

On to `CCCCNS(=O)(=O)c1ccc2[nH]c(=O)cc(C)c2c1`, for which the host macrophage viability is 127%.

For the compound `Cc1ccn2c(=O)nc(SCC(=O)c3ccccc3)nc2c1`, the host macrophage viability came to 111%.

With `Cc1ccc2cc(CCNC(=O)c3c(F)cccc3Cl)c(=O)[nH]c2c1C`, the host macrophage viability was found to be 126%.

As for `CCOC(=O)N1CCC2(CC1)Oc1c(OC)cccc1C1CC(c3cc(C)ccc3O)=NN12` (centres undefined), the host macrophage viability stood at 119%.

Regarding `COCCNc1cc(C)nc2cc(-c3cc(OC)cc(OC)c3)nn12`, the host macrophage viability turned out to be 92.3%.

Consider `Cc1cc(NC(=O)c2ccccc2C(F)(F)F)n(-c2ncnc3c2cnn3-c2cccc(Cl)c2)n1`, for which the host macrophage viability was 120%.

In the case of `Cc1ccc2nc(NCc3ccccc3)c(/C=N/Cc3cccnc3)c(=O)n2c1`, the host macrophage viability stood at 106%.

As to `O=C(COc1ncnc2ccccc12)NC1(CN2CCCC2)CCCCC1`, the host macrophage viability turned out to be 103%.

Turning to `O=C(CSc1nc(=O)[nH]c2c1CCCC2)NCc1ccc2c(c1)OCO2`, the host macrophage viability came out at 125%.

For `CC(SC1=Nc2ccccc2C2=NC(c3ccccc3)C(=O)N12)C(=O)Nc1ccc2c(c1)OCCO2` (centres undefined), the host macrophage viability was 98.7%.

For the compound `COc1ccc(CCNC(=O)Cn2nc(-c3ccc(C)o3)cc(N)c2=O)cc1OC`, the host macrophage viability was determined as 106%.

`CCc1ccc(-c2noc3c(=O)n(CCC(=O)NCCCN4CCCC4=O)cnc23)cc1`: the host macrophage viability came to 130%.

For `CCN(CC)c1cc(CNC(=O)Nc2ccc3c(c2)OCO3)ccn1`, the host macrophage viability came out at 118%.

Consider `O=C(Cn1c2c(c(=O)n3nc(-c4ccccc4)nc13)CCC2)NCC1CCCO1` (centres undefined), for which the host macrophage viability turned out to be 109%.

`O=C(COc1ncnc2onc(-c3ccccc3)c12)Nc1ccc(Br)cc1F`: the host macrophage viability turned out to be 131%.

Take `COc1cc(NC(=O)CSc2nnc(-c3ccc(NS(=O)(=O)c4ccccc4)cc3)o2)cc(OC)c1`: the host macrophage viability was determined as 112%.

Regarding `CCOC(=O)c1sc(NC(=O)c2ccc(Cl)s2)c(SC#N)c1C`, the host macrophage viability was 149%.

For `O=C(NC1CCN(Cc2ccccc2)CC1)c1cnc(N2CCOCC2)c2ccccc12`, the host macrophage viability was 113%.

Turning to `CCOc1ccc2ncc(C(=O)NCc3ccc(F)cc3)c(O)c2c1`, the host macrophage viability turned out to be 109%.

With `CC(=O)Nc1ccc(NC(=O)c2cnc3c(c(C)nn3-c3ccccc3)c2Cl)cc1`, the host macrophage viability was determined as 107%.

For `C=CCOc1cc(C2CC(=O)Nc3c2c(C)nn3-c2nncc(-c3ccc(C)cc3)n2)ccc1OC` (centres undefined), the host macrophage viability was found to be 111%.

In the case of `COc1cc(C)c(-c2nc(NC(=O)C3(C)CCCO3)sc2C)cc1C` (centres undefined), the host macrophage viability turned out to be 93.1%.

For the compound `N#Cc1c(NC(=O)CC2SC(=N)NC2=O)sc2c1CCCC2` (centres undefined), the host macrophage viability is 127%.

In the case of `Cc1csc2nc(O)c(C(=O)NCCCN3CCOCC3)c(=O)n12`, the host macrophage viability was determined as 124%.

Take `Cc1ccccc1CNc1nc(NCCO)nc2c1cnn2C`: the host macrophage viability was 114%.

Take `CCOC(=O)c1c(NC(=O)CSc2nnc3ncccn23)sc(C)c1C`: the host macrophage viability was determined as 112%.

For `Cc1nc2ccc(NC(=O)c3cccc(NS(=O)(=O)c4ccc(F)cc4)c3)cc2s1`, the host macrophage viability amounted to 113%.

Consider `O=C(Cn1c(=O)n(CCc2ccccc2)c(=O)c2c3c(sc21)CCCC3)Nc1ccc(F)c(F)c1`, for which the host macrophage viability was determined as 106%.

`Cc1cc2cc3c(cc2nc1NCCNC(=O)c1ccco1)OCCO3`: the host macrophage viability came out at 110%.

As to `CCOC(=O)c1cnc2cc(OC)c(OC)cc2c1O`, the host macrophage viability amounted to 101%.

For the compound `COc1ccc(OC)c(Nc2ncc3c(n2)CCNC3)c1`, the host macrophage viability was 108%.

As to `Cc1cc(=O)[nH]c(N2CCN(C(=O)N3CCCCC3)CC2)n1`, the host macrophage viability was 120%.

Turning to `Cc1ccc2c(c1)C(=O)C(=O)N2CCn1c2ccccc2c2nc3ccccc3nc21`, the host macrophage viability was determined as 109%.

As for `COc1ccccc1-c1nc(SCC(=O)NCC2CCCO2)c2c(=O)n(C)c(=O)n(C)c2n1` (centres undefined), the host macrophage viability was 126%.

As for `COc1ccc(NC(=O)c2cccc3nc4ccccc4nc23)c(OC)c1`, the host macrophage viability is 135%.

For `CN1C(=O)NC(c2cccc(F)c2)C(C(=O)c2cccs2)C1(O)C(F)(F)F` (centres undefined), the host macrophage viability was found to be 112%.

Take `Cc1ccc(Cl)c2sc(N3CCN(C(=O)c4cccc([N+](=O)[O-])c4)CC3)nc12`: the host macrophage viability was 107%.

On to `CC(=O)N1c2ccc(NC(=O)CSc3nccc4ccccc34)cc2CC1C` (centres undefined), for which the host macrophage viability amounted to 111%.

`Cc1nc(-c2cccs2)c(CC(=O)NCc2ccc(Cl)cc2)s1`: the host macrophage viability came to 117%.

With `Nc1nc(SCc2ccc3c(c2)OCO3)ns1`, the host macrophage viability amounted to 105%.

As to `COc1cc(Cn2nc3n(C)c4ccccc4n3c2=O)cc(OC)c1OC`, the host macrophage viability came out at 124%.

For the compound `COc1ccccc1OCCN(C)C(=O)Cn1cnc2sc(C)cc2c1=O`, the host macrophage viability was found to be 106%.

`CC(Oc1cc2oc(=O)c3c(c2cc1Cl)CCC3)C(=O)O` (centres undefined): the host macrophage viability was determined as 104%.

With `CCn1nnc2cc(-c3noc(C4CC(=O)N(c5ccccc5)C4)n3)ccc21` (centres undefined), the host macrophage viability was 113%.

Turning to `Cn1ncc2c(NCc3ccc(F)cc3)nc(N3CCOCC3)nc21`, the host macrophage viability was determined as 109%.

Consider `COCCn1/c(=N/C(=O)c2cc3ccccc3oc2=O)sc2cc(NC(C)=O)ccc21`, for which the host macrophage viability was 127%.

Consider `CCOC(=O)CC1C(=O)NCCN1Cc1ccc(OC)c(OC)c1` (centres undefined), for which the host macrophage viability was 96.4%.
